# Data published in patent publication US8623196B2 (priority 2007, dated 2014).
# Tested on: tyrosinase
# Format: biochemical
# Details: NEST biosensor, 0.1 M phosphate buffer pH 7.0, −0.1 V
row,SMILES,concentration at which saturation was reached
1,Oc1ccccc1O [catechol],approximately 85 μM
2,Oc1ccccc1 [phenol],approximately 75 μM
